Reference: PubChem BioAssay AID1053208 (Peter MacCallum Cancer Centre, 2014)
In all, the deposit lists about 17,000 reagents; below is a part drawn at random. 788 of them (4.7%) were called active. 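Calls rest on z-score classes alone; an extra cut-off of viability at most 70% of control was not applied to them.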 Unmarked entries are inactive. Some reagents were tested in more than one well and are listed for each. Not all columns of the deposit are shown.

Assay: 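Synthetic lethal interactions between gene loss and doxorubicin in osteosarcoma cells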 (primary screen)
Cell system: mouse osteosarcoma cells, early-passage culture from an engineered mouse model of fibroblastic bone tumour
Reagent: siRNA pool against mouse genes, 40 nM
Timing: about 120 h (48 h before drug, then 72 h with drug)
Treatment: doxorubicin 100 nM for 72 h, roughly 30-40% inhibitory dose
Measured: 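Luminescent ATP signal taken as viability with or without 100 nM doxorubicin for 72 h; mean of two wells set against non-targeting siRNA and turned into robust z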
Scale: viability z-score with doxorubicin: higher = more viable cells under doxorubicin; viability z-score without drug: higher = more viable cells with knock-down alone
Active means: 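a pool counts as active when its viability z-score with doxorubicin is -2 or below and its z-score without drug lies between -2 and 2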

{"target": "Pdia5 (protein disulfide isomerase associated 5)", "combined z-score class": "no change with or without drug", "viability z-score with doxorubicin": 0.22, "viability z-score without drug": 1.18}
{"target": "P3h3 (prolyl 3-hydroxylase 3)", "combined z-score class": "no change with or without drug", "viability z-score with doxorubicin": 0, "viability z-score without drug": 1.18}
{"target": "A830039N20Rik (RIKEN cDNA A830039N20 gene)", "combined z-score class": "no change with or without drug", "viability z-score with doxorubicin": 0.22, "viability z-score without drug": -0.17}
{"target": "Lrrk2 (leucine-rich repeat kinase 2)", "combined z-score class": "high cell count with doxorubicin only", "viability z-score with doxorubicin": 2.36, "viability z-score without drug": 1.18}
{"target": "Lrrk2 (leucine-rich repeat kinase 2)", "combined z-score class": "no change with or without drug", "viability z-score with doxorubicin": -0.45, "viability z-score without drug": 0.84}
{"target": "Crip2 (cysteine rich protein 2)", "combined z-score class": "no change with or without drug", "viability z-score with doxorubicin": 0.45, "viability z-score without drug": 0.84}
{"target": "Hsd17b3 (hydroxysteroid (17-beta) dehydrogenase 3)", "combined z-score class": "no change with or without drug", "viability z-score with doxorubicin": 0, "viability z-score without drug": -1.35}
{"target": "Akap13 (A kinase anchor protein 13)", "combined z-score class": "no change with or without drug", "viability z-score with doxorubicin": -1.24, "viability z-score without drug": -0.84}
{"target": "Eif4a3 (eukaryotic translation initiation factor 4A3)", "combined z-score class": "low cell count with doxorubicin only (active)", "viability z-score with doxorubicin": -2.92, "viability z-score without drug": -1.69}
{"target": "Kcnmb4", "combined z-score class": "no change with or without drug", "viability z-score with doxorubicin": 0.34, "viability z-score without drug": -0.84}
{"target": "Aadat (aminoadipate aminotransferase)", "combined z-score class": "no change with or without drug", "viability z-score with doxorubicin": -1.57, "viability z-score without drug": 0.17}
{"target": "BC021340", "combined z-score class": "no change with or without drug", "viability z-score with doxorubicin": 1.57, "viability z-score without drug": 0.17}
{"target": "Slc16a10", "combined z-score class": "no change with or without drug", "viability z-score with doxorubicin": 0.22, "viability z-score without drug": -0.17}
{"target": "Vmn1r10 (vomeronasal 1 receptor 10)", "combined z-score class": "no change with or without drug", "viability z-score with doxorubicin": 0.9, "viability z-score without drug": 0.84}
{"target": "Tas2r120 (taste receptor, type 2, member 120)", "combined z-score class": "no change with or without drug", "viability z-score with doxorubicin": 0.22, "viability z-score without drug": 0.17}
{"target": "Dhrs1 (dehydrogenase/reductase 1)", "combined z-score class": "no change with or without drug", "viability z-score with doxorubicin": -0.67, "viability z-score without drug": 1.01}
{"target": "Rpl35a (ribosomal protein L35A)", "combined z-score class": "low cell count with and without drug", "viability z-score with doxorubicin": -7.87, "viability z-score without drug": -8.26}
{"target": "4930433N12Rik (RIKEN cDNA 4930433N12 gene)", "combined z-score class": "no change with or without drug", "viability z-score with doxorubicin": -0.45, "viability z-score without drug": 1.35}
{"target": "Paip1 (polyadenylate binding protein-interacting protein 1)", "combined z-score class": "no change with or without drug", "viability z-score with doxorubicin": -0.45, "viability z-score without drug": -0.34}

Reagents listed above marked active, once more:
{"target": "Eif4a3 (eukaryotic translation initiation factor 4A3)", "combined z-score class": "low cell count with doxorubicin only (active)", "viability z-score with doxorubicin": -2.92, "viability z-score without drug": -1.69}
